According to PubChem BioAssay AID1487 (National Center for Advancing Translational Sciences (NCATS), 2009):
Values joined by “and” are separate entries in the source; they are usually repeats but may differ in a detail not shown here. Equal values may be shown once. The list shows a part of the results. Shown are side measurements of this screen, not its main read-out; they come without a call. The list favours compounds with an active or inconclusive main result. Potencies come from curve fits of mixed quality, noted in brackets.

Experiment: qHTS Assay for Modulators of Lamin A Splicing
Conditions: HeLa LMNA splicing GFP/RFP minigene ratio, 48 h
Summary of the method: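 S3 HeLa cells stably expressing lamin A-EGFP splicing minigene plus DsRed2, 600 cells/well, 48 h compound exposure at 37C. Laser-scanning cytometry; analysed as GFP (500-530 nm)/RFP (575-640 nm) total intensity ratio; 0.5% DMSO vehicle.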

[1] = measured here: GFP splicing reporter channel
[2] = measured here: RFP viability control channel

Structure (SMILES) | AC50 [1] | AC50 [2]
CC1CCC(C(C)C)C(OC(=O)Cn2c(-c3ccccc3)[n+](C)c3ccccc32)C1 (centres undefined) | 1.41 µM [rising, full curve] | 8.91 µM [rising, partial curve] and 3.55 µM [rising, full curve]
CCCCCNC(=O)c1cc2c(=O)n3ccccc3nc2n1C | 31.6 µM [falling, partial curve] | 
CC(C)N1CCC(N2CCN(Cc3cc4c(cc3Cl)OCO4)CC2CCO)CC1 (centres undefined) | 1.12 µM [falling, full curve] | 0.891 µM [falling, full curve, poor fit]
CC(C)(C)Nc1ncnc2c1cnn2-c1ccccc1 |  | 6.31 µM [rising, partial curve, poor fit]
Cc1cc(/C=N/O)c(C)n1-c1ccc(Br)cc1 | 20 µM [rising, partial curve, poor fit] | 
O=S1(=O)N=C(N(CCO)/N=C/c2ccccc2)c2ccccc21 | 1.26 µM [falling, partial curve, poor fit] | 0.355 µM [falling, partial curve]
O=C(NC(Cc1c[nH]c2ccccc12)C(=O)O)c1cccs1 (centres undefined) | 0.00891 µM [falling, full curve, poor fit] | 0.00447 µM [falling, full curve, poor fit]
CC1=C(C(=O)OC(C)C)C(c2ccccc2)NC(=S)N1C (centres undefined) |  | 17.8 µM [rising, single point]
c1ccc2c(NC3C4CC5CC(C4)CC3C5)nc(N3CCOCC3)nc2c1 (centres undefined) | 3.16 µM [falling, single point] | 35.5 µM [falling, single point]
CC(C)Cn1c(=O)c(C(=O)N/N=C/c2cccc(F)c2)c(O)c2ccccc21 |  | 5.01 µM [rising, single point]
C=CCN(c1ccc(C(=O)N2CCN(c3ccc(F)cc3)CC2)cc1)S(C)(=O)=O |  | 25.1 µM [rising, partial curve, poor fit]
COc1cc(/C=C2\SC(=Nc3ccccc3)N(CCc3c[nH]c4ccccc34)C2=O)ccc1OC(C)C(=O)O (centres undefined) |  | 35.5 µM [rising, single point]
COc1ccc2[nH]cc(CCNc3ncnc4ccc(-c5ccoc5)cc34)c2c1 | 17.8 µM [falling, partial curve] | 11.2 µM [falling, partial curve]
Cc1cc(F)ccc1S(=O)(=O)N1CCCOC1CNC(=O)C(=O)NCCc1c[nH]c2ccccc12 (centres undefined) | 12.6 µM [rising, single point] | 25.1 µM [rising, single point]
Cc1ccc(NC(=O)CSc2nc3nc(C)c(Cc4ccccc4)c(C)n3n2)cc1 | 10 µM [falling, partial curve, poor fit] | 39.8 µM [falling, partial curve, poor fit]
CCC(=O)OCC(=O)[C@@]1(OC(=O)CC)[C@H](C)C[C@@H]2[C@@H]3[C@H]([C@@H](O)C[C@@]21C)[C@]1(C)C=CC(=O)C=C1C[C@@H]3Cl | 0.0178 µM [rising, full curve, poor fit] | 0.447 µM [falling, partial curve]
N#C/C(=C\c1ccc(O)c(O)c1)C(=O)NCCCc1ccccc1 | 3.16 µM [falling, full curve] | 31.6 µM [rising, single point]
CN(Cc1ccon1)Cc1cn(C)nc1-c1ccc2c(c1)OCCO2 | 4.47 µM [rising, partial curve, poor fit] | 
CCCCCCCCCCCCCCCC(=O)O | 0.000794 µM [rising, full curve, poor fit] | 
CCOc1cc(-c2c(C)c(CC)nc(N)c2C#N)ccc1O |  | 35.5 µM [rising, single point]
COc1ccc(CC(=O)Nc2nnc(C(C)C)s2)cc1OC |  | 35.5 µM [falling, partial curve, poor fit]
CC1(C)Cc2c(sc3c2c(=N)n(Cc2ccco2)c(=O)n3CC(=O)Nc2cccc(Cl)c2)CO1 | 35.5 µM [rising, single point] | 35.5 µM [rising, single point]
O=C(CSc1ncnc2sc3c(c12)CCCC3)N1CCC(c2noc3ccc(F)cc23)CC1 | 3.55 µM [falling, partial curve, poor fit] | 
CCOc1ccc(NC(=S)c2ccncc2)cc1 |  | 10 µM [rising, partial curve]
CN(C)c1cccc(NC(=O)Cc2ccc(F)cc2)c1 | 12.6 µM [rising, single point] | 
CCc1ccc(/C=N/NC(=O)c2c[nH]c3ccccc23)s1 |  | 20 µM [rising, partial curve, poor fit]
O=[N+]([O-])c1cc(S(=O)(=O)Nc2ccccc2)ccc1-n1nnc2ccccc21 |  | 35.5 µM [rising, single point]
O=C(CN(Cc1ccccc1)S(=O)(=O)c1ccc2c(c1)OCCO2)N/N=C/c1cccc(Br)c1 |  | 12.6 µM [rising, single point]

Structure (SMILES) | AC50 [1] | AC50 [2]
O=C(O)CN1C(=O)SC(Nc2ccc(Cl)cc2)C1=O (centres undefined) |  | 22.4 µM [falling, partial curve, poor fit]
CCCCOc1ccc2c(C)cc(=O)oc2c1OCCCC | 35.5 µM [rising, single point] | 1.41 µM [rising, partial curve]
CCn1c(=O)c(C(=O)NCc2ccccn2)c(O)c2ccccc21 | 11.2 µM [rising, single point] | 35.5 µM [rising, single point]
CCn1c2ccccc2c2cc(NC(=O)CSc3nnc(-c4ccccc4)o3)ccc21 |  | 12.6 µM [rising, partial curve]
COc1ccc(COc2ccccc2C(=O)Nc2ccccn2)cc1[N+](=O)[O-] |  | 35.5 µM [falling, single point]
COc1ccc(-c2ccc(SCC(=O)NCc3ccco3)nn2)cc1 | 3.98 µM [rising, full curve, poor fit] | 2.82 µM [rising, full curve]
CCN(CC)CCNc1ncnc2c1sc1nc(N3CCOCC3)c3c(c12)CC(C)(C)SC3 | 22.4 µM [falling, single point] | 35.5 µM [falling, single point]
C=C[C@](C)(O)CCC1C(=C)CCC2[C@@](C)(CO)CCC[C@@]12C (some centres undefined) | 35.5 µM [rising, single point] | 11.2 µM [rising, partial curve]
Cc1ccc(-c2cn3cc([N+](=O)[O-])ccc3n2)cc1 | 10 µM [rising, partial curve] | 8.91 µM [rising, partial curve]
COc1ccc(S(=O)(=O)NCC(c2cccnc2)N2CCN(c3ccc(F)cc3)CC2)cc1C (centres undefined) |  | 11.2 µM [rising, single point]
NC(=NCCc1ccc(Cl)cc1)NS(=O)(=O)c1ccc(F)cc1 | 35.5 µM [rising, single point] | 35.5 µM [rising, single point]
Cc1ccc(C)c(Cn2c(=O)n(CC3CCC(C(=O)N4CCOCC4)CC3)c(=O)c3sccc32)c1 (centres undefined) |  | 11.2 µM [rising, partial curve]
O=P(CCO)(c1ccccc1)c1ccccc1 | 0.00447 µM [rising, full curve, poor fit] | 
CCN(Cc1ccccc1)c1ccc(/C=N/NS(=O)(=O)c2cccc([N+](=O)[O-])c2)cc1 |  | 4.47 µM [rising, single point]
CCCCc1ccc(NC2=NCC(=O)N2CCc2ccccc2)cc1 | 35.5 µM [falling, single point] | 
O=C(c1ccc(S(=O)(=O)N2CCOCC2)cc1)N(Cc1ccco1)Cc1cccs1 |  | 11.2 µM [rising, single point]
CCOc1ccc(C(=O)OCCN(CC)CC)cc1 | 4.47 µM [rising, partial curve, poor fit] | 10 µM [rising, partial curve, poor fit]
COc1cccc(CNS(=O)(=O)c2ccc3[nH]c4c(c3c2)CCCCC4)c1 | 0.00501 µM [falling, full curve] | 
N#Cc1cccc(-c2nc3cnc(Oc4cccc(Cl)c4)nc3n(C3CC3)c2=O)c1 | 5.62 µM [falling, full curve] | 
O=C(CSC1=NCCS1)NC(NC(=O)CSC1=NCCS1)c1ccccc1 |  | 14.1 µM [rising, partial curve]
Cn1ncc(Br)c1C(=O)N1CCc2ccccc21 | 14.1 µM [rising, single point] | 
COC(=O)c1cccc([N+](=O)[O-])c1CN1CCCC(C(N)=O)C1 (centres undefined) | 0.002 µM [rising, full curve, poor fit] | 
Cn1cc(C(=O)c2ccc(Cl)cc2)cc1-c1nc2ccccc2n1C |  | 20 µM [falling, partial curve]
CC(=O)OC[C@@]1(O)C[C@]23CCC4c5ccoc5CC[C@@]4(C)C2CCC1C3 (some centres undefined) |  | 17.8 µM [rising, single point]
COc1ccc(S(=O)(=O)N(C(=O)C(C)C)c2ccc3oc(=O)sc3c2)cc1 |  | 15.8 µM [rising, single point]
CCn1c(/C=C/N(C(C)=O)c2ccccc2)[n+](CC)c2ccc(Cl)cc21 |  | 10 µM [rising, partial curve, poor fit]
O=C(Nc1nc2c(F)cccc2s1)c1ccc(S(=O)(=O)N2CCOCC2)cc1 | 1 µM [rising, full curve, poor fit] | 

Part of the list above in order of number of heavy atoms, rising:
Structure (SMILES) | AC50 [1] | AC50 [2]
Cc1cc(/C=N/O)c(C)n1-c1ccc(Br)cc1 | 20 µM [rising, partial curve, poor fit] | 
CCOc1ccc(NC(=S)c2ccncc2)cc1 |  | 10 µM [rising, partial curve]
O=C(O)CN1C(=O)SC(Nc2ccc(Cl)cc2)C1=O (centres undefined) |  | 22.4 µM [falling, partial curve, poor fit]
CN(C)c1cccc(NC(=O)Cc2ccc(F)cc2)c1 | 12.6 µM [rising, single point] | 
CC1=C(C(=O)OC(C)C)C(c2ccccc2)NC(=S)N1C (centres undefined) |  | 17.8 µM [rising, single point]
O=C(NC(Cc1c[nH]c2ccccc12)C(=O)O)c1cccs1 (centres undefined) | 0.00891 µM [falling, full curve, poor fit] | 0.00447 µM [falling, full curve, poor fit]
CCCCCNC(=O)c1cc2c(=O)n3ccccc3nc2n1C | 31.6 µM [falling, partial curve] | 
N#C/C(=C\c1ccc(O)c(O)c1)C(=O)NCCCc1ccccc1 | 3.16 µM [falling, full curve] | 31.6 µM [rising, single point]
CN(Cc1ccon1)Cc1cn(C)nc1-c1ccc2c(c1)OCCO2 | 4.47 µM [rising, partial curve, poor fit] | 
CC(=O)OC[C@@]1(O)C[C@]23CCC4c5ccoc5CC[C@@]4(C)C2CCC1C3 (some centres undefined) |  | 17.8 µM [rising, single point]
c1ccc2c(NC3C4CC5CC(C4)CC3C5)nc(N3CCOCC3)nc2c1 (centres undefined) | 3.16 µM [falling, single point] | 35.5 µM [falling, single point]
O=C(Nc1nc2c(F)cccc2s1)c1ccc(S(=O)(=O)N2CCOCC2)cc1 | 1 µM [rising, full curve, poor fit] | 
C=CCN(c1ccc(C(=O)N2CCN(c3ccc(F)cc3)CC2)cc1)S(C)(=O)=O |  | 25.1 µM [rising, partial curve, poor fit]
Cc1ccc(NC(=O)CSc2nc3nc(C)c(Cc4ccccc4)c(C)n3n2)cc1 | 10 µM [falling, partial curve, poor fit] | 39.8 µM [falling, partial curve, poor fit]
CCN(Cc1ccccc1)c1ccc(/C=N/NS(=O)(=O)c2cccc([N+](=O)[O-])c2)cc1 |  | 4.47 µM [rising, single point]
CCN(CC)CCNc1ncnc2c1sc1nc(N3CCOCC3)c3c(c12)CC(C)(C)SC3 | 22.4 µM [falling, single point] | 35.5 µM [falling, single point]
CC1(C)Cc2c(sc3c2c(=N)n(Cc2ccco2)c(=O)n3CC(=O)Nc2cccc(Cl)c2)CO1 | 35.5 µM [rising, single point] | 35.5 µM [rising, single point]
